This note sets out measurements from PubChem BioAssay AID1508600 (Functional Genomics Laboratory (NCATS/FGL), 2020).

Among all 53,000 sequences or so, about 3,700 (7%) were called active.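 Rule for the calls: active = gene knockdowns whose robust z-score for IL-1 alpha signal is at least 2 or at most -2, so actives lie on both sides; inactive = the rest.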 The list shows a part of the results.

A short description of this assay: Components of the Cytosolic LPS Sensing Pathway: Gene Identification via Genome-wide siRNA Screen.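 Note: robust z of the log signal after scaling to non-targeting control siRNA wells of the plate.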 Conditions: RAW264.7 macrophages, IL-1a HTRF, actives lie on both sides, screened at 100 nM (by protocol), cells primed 5 h with Pam3CSK4 first. Put shortly:
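Cells (RAW264.7, 1×10^4 per well) were transfected with siRNA at 100 nM and cultured 48h at 37 degrees C. Pam3CSK4 was added for 5 hours; LipidA transfection followed for 24 hour. IL-1a was then measured by HTRF.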
Regarding GGAUAGUUUGGUAAUGAAATT against Cds1, the z-score was inactive: -0.748.

GCAAGCAGAGAUGUUACAUTT against Olfr1284: the z-score was inactive: -0.975. To GGCUUUGAGAGGAACACCATT against Sh2d4b belongs active: -2.49. “GCACCAUCGACUAAUCAAATT against 1700029J07Rik”: the z-score was inactive: 1.12. Turning to GGUAUCCAGAUGAAAGAUGTT against Nlrp10, the z-score is inactive: -1.13. On to GCAUUAAAGUAGAAGGUCUTT against Snx31, for which the z-score was inactive: 0.812. To GGCGUAUGCAGAAUUCUACTT against Cox6c belongs inactive: -0.0709; to GCUUCUGUUCAAAUACUUATT against Tal1, inactive: 1.02; to GGAAGACCCUAAGGACUAUTT against Srpk3, inactive: -0.269.

For the sequence CCCUAAUUCAUUAGCUAUATT against Dhdds, the z-score is inactive: 0.111. To GGUCAUGACAGGAUACCCATT against Fam163b belongs inactive: -1.99; to GGUGUCGACAGGAUGGAAUTT against Adamts7, inactive: -0.245. Turning to GCAGUAAAGCUUGUGUAGGTT against Mpdu1, the z-score was inactive: 0.297.

As to GCUGAGUGAAUCCACGUACTT against Mzb1, the z-score is active: -2.65. As to “CCACAAGCUUCAAUGACACTT against 6430571L13Rik”, the z-score is inactive: -0.727. GCCAAUUAAUGAUUGCUUUTT against Zfp322a: the z-score is inactive: 0.945.

Turning to GGACAAGAAGAAGAAGCGCTT against Micu1, the z-score was inactive: -0.546. With CGUGGAUCGGAACAGUAUCTT against Lrrc10, the z-score is inactive: 0.874. The figure for GCUUUAGAGUUCAAUAGUCTT against Zfp592 is inactive: -0.172; for GGGCCAUUACAGAGUUUCUTT against Apobec1 it is inactive: 0.964. On to GGCUUUUUGCUUUAGCUUUTT against Cfl1, for which the z-score was inactive: 0.0101. Take GGCAGAUCGAAGAGAACAATT against Prl8a9: the z-score was inactive: 0.528. On to GCCUAAAUUUAUUCAGGUUTT against Neurod1, for which the z-score is inactive: 0.386. With GGCGAAGGAGAAGAAUUAATT against Rhox5, the z-score was inactive: 0.352.

As for “CGCAAUGGUAAGAAUCACCTT against 9230106D20Rik”, the z-score was inactive: -0.149. In the case of GGGAAUCAAAGGCUUUGGGTT against Ms4a1, the z-score is inactive: -1.15. As to GGAAACUGAAAAACAGAGUTT against Xbp1, the z-score was inactive: -0.957. For the sequence GGAACAGCAGUUUUUGUUUTT against Rnf44, the z-score was inactive: 0.097. For the sequence GGUUUAUGCAAUGAAGCUUTT against Rock2, the z-score is inactive: -0.0928. As for GGCAACAGACAUUCAUCUUTT against Mfng, the z-score is inactive: 0.807.

GGUAUGAACCGUGAUCCUCTT against Lrrtm4: the z-score is inactive: 1.84. For CCUCAACUCCGACAAACAGTT against Itfg1, the z-score is inactive: -1.47. GGUUGUCUUCAACACCAAATT against Lgals7: the z-score is inactive: -0.147. For the sequence GGGCCUCUUCCUUAAGCAUTT against Snx8, the z-score was inactive: -0.382. With GGCUGUGAAAAAACUAGAATT against Serpina1e, the z-score was inactive: -0.359. To GGGCCAAUUUAAGUAUAUCTT against Gpr182 belongs inactive: 0.577.

As to GCUUUCUGGGUAACAUAGGTT against Ubqln3, the z-score was inactive: -1.46. Turning to GGAAGAGAAUGAAAUGUACTT against Snrnp48, the z-score was inactive: -0.227. To GCUUGAUCGCUUUCAACUCTT against Coro7 belongs inactive: 0.734; to GUAUUAUAGACACCUUGCATT against Phip, inactive: -0.835. With GGCUAAGUUCGCUUACAAATT against Tmem120a, the z-score was inactive: -0.477. Consider GGUCUAUACCAUCCUAUUGTT against Faim2, for which the z-score was inactive: -0.273. As for CCCACUUUGAAAAAGACUCTT against Mei4, the z-score was active: 2.5.

For the sequence GCACUGUGAAUGCUAUACCTT against Kmt5c, the z-score was inactive: -0.454.

Turning to CCGUCGUACACAAUCUUACTT against Fgfr4, the z-score was inactive: -0.512. Turning to GGUCUCAUCUAAGGUGUCATT against Pcdha7, the z-score was inactive: 0.867. In the case of GGCUGUCAAAACAGUGCUCTT against Hmgcs2, the z-score is inactive: 1.45.

As to GGUAUCAGACAGCUGUAACTT against Mptx1, the z-score is inactive: 0.359. For GGAAGCUGAAAAAUGAACUTT against Sytl5, the z-score was inactive: -0.7.

GGUUGUGAUCAAUUAUUCATT against Evl: the z-score was inactive: 1.27. Regarding CGGUGCUGUAUAUUCAUAUTT against Chrm4, the z-score was inactive: -0.987. To GGUAGCAGCCUUCCGACAUTT against Mtmr9 belongs inactive: 0.0194. With GGAGCAAAUCCAGAACCGATT against Trim27, the z-score was inactive: 1.39. Take GGUUCAGGAGAACUUCAGUTT against Ambp: the z-score was inactive: 1.96. The figure for CCAUUGAUCUCAUCAACCCTT against Paf1 is inactive: -0.608; for GGAGCAACUAGGAUGAUGATT against Zbtb32 it is inactive: -0.987; for GGAGAACUACCUGUCAGAATT against Tnni2 it is inactive: 0.276. The figure for GGAAUCACAGUGCAGAAGGTT against Olfr1262 is inactive: 0.15. Take GCUACAGGGAAGUAUUGAATT against Apc: the z-score is active: 2.05.

With CCGUCUAUGGUUCAAGGUCTT against Cdca8, the z-score was inactive: -0.814. The figure for GCGAGCUUUAACCUUUCCATT against Olfr1028 is active: -2.49. The figure for GGACCAGCUGAUCUCAGUATT against Olfr418 is inactive: -1.94. Turning to GGUAAAUCAGAAGACUGAATT against Tent2, the z-score was inactive: 0.743. On to GGAAGAUUCAGCCUUUAGATT against Cchcr1, for which the z-score is inactive: -1.06.

Regarding GGCCAACCAAGAGGACAAUTT against Nup107, the z-score is inactive: -1.52.

With CCUACCAGUGACUGCUACATT against Fam222a, the z-score was inactive: -1.29. With GGCCAAACUAAUGUUUUUCTT against Prox2, the z-score is inactive: -0.594. Regarding GGUGAACCUUGGUACCCAUTT against Mrps18b, the z-score was inactive: -0.186.
